Test results from the supplement of paper PMC11732987, “Enantioselective OTUD7B fragment discovery through chemoproteomics screening and high-throughput optimisation” (Communications Chemistry, 2025).
Some of the results follow. The data scatter; read single values as rough.

By UniProt entry, the sequences of proteins in these tests, tags left out. Where a name states a change or a piece, a line headed by the entry shows the natural chain unless it says otherwise.
UniProt Q9P2E9: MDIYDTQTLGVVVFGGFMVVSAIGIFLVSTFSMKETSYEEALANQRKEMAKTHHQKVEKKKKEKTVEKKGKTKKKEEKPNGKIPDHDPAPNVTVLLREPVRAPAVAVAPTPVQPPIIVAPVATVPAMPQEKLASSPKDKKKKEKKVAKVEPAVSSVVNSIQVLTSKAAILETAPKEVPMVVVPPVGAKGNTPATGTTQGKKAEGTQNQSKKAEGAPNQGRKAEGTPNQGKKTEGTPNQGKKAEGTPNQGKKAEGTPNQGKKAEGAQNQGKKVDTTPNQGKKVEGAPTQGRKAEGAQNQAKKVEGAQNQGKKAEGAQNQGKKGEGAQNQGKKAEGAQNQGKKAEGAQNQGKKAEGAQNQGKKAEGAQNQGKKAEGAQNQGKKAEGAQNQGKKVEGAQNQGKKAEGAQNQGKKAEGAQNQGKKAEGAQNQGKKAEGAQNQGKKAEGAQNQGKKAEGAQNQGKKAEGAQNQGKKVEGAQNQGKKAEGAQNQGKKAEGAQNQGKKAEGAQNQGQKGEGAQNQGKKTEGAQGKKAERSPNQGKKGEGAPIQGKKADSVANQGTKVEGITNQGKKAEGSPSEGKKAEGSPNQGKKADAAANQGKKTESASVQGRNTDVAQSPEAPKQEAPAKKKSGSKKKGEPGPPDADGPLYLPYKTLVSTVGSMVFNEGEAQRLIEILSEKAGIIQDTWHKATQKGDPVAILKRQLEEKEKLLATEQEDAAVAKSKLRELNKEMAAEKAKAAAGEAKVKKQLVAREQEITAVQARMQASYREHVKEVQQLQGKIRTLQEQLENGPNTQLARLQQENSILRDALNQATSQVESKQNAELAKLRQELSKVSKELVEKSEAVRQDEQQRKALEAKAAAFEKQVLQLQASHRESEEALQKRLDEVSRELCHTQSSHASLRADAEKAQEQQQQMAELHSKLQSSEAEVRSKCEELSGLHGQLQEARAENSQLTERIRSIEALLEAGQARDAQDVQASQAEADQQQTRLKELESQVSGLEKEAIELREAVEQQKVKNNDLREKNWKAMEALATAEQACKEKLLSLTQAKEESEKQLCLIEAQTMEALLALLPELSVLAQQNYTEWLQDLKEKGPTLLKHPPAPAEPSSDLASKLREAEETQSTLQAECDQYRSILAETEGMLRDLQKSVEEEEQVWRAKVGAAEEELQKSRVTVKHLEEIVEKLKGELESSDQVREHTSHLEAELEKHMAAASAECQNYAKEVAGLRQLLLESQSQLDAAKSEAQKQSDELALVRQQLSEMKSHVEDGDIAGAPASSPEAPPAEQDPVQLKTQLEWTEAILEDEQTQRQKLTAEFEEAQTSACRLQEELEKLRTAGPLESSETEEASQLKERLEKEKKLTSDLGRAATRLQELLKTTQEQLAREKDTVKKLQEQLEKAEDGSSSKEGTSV
UniProt P28702: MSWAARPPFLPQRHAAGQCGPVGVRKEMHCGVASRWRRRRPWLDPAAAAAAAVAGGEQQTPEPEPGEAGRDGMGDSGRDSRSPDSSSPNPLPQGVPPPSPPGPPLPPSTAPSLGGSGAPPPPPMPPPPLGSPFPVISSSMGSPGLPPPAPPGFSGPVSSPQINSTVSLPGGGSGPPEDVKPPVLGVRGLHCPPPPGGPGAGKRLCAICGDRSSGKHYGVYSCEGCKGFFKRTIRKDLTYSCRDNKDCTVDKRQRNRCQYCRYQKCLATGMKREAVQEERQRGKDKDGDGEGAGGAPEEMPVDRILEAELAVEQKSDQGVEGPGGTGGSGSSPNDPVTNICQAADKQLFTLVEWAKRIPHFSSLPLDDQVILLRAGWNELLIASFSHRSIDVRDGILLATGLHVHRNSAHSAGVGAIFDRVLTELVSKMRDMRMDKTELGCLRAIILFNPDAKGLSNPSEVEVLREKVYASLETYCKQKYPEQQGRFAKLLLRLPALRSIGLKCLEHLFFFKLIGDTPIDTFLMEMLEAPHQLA
UniProt Q8N122: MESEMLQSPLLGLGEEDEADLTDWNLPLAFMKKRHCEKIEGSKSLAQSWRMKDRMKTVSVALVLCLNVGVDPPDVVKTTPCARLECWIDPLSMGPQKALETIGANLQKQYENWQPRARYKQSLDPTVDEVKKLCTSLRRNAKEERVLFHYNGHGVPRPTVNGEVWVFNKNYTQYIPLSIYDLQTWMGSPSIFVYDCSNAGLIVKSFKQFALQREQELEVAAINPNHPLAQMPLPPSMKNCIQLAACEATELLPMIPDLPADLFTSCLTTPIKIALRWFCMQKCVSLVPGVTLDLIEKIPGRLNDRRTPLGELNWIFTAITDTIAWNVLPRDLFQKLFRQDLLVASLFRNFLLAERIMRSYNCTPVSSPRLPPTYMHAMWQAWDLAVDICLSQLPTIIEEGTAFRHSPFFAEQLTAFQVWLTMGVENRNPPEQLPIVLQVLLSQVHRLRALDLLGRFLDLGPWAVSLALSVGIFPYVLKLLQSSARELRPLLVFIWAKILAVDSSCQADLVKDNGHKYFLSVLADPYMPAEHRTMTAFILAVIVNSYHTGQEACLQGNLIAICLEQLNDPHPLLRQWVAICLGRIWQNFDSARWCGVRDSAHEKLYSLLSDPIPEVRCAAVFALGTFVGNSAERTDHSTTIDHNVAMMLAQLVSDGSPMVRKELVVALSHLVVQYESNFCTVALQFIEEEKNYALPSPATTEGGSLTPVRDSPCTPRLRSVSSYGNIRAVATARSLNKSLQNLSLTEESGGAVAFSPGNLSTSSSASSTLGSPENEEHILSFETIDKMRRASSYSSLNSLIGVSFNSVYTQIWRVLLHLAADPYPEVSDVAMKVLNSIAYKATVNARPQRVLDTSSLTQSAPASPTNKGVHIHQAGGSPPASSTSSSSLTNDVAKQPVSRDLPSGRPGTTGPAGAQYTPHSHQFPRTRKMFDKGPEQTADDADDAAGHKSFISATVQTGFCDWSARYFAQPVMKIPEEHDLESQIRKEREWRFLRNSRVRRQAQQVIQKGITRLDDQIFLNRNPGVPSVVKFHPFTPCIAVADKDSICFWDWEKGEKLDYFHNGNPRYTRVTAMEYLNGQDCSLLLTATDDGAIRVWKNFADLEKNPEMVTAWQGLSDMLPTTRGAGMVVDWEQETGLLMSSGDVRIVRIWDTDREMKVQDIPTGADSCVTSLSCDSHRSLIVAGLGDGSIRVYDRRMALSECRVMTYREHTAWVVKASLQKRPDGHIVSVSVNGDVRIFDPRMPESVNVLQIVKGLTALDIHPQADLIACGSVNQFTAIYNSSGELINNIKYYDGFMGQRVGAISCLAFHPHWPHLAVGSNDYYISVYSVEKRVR
UniProt Q05823: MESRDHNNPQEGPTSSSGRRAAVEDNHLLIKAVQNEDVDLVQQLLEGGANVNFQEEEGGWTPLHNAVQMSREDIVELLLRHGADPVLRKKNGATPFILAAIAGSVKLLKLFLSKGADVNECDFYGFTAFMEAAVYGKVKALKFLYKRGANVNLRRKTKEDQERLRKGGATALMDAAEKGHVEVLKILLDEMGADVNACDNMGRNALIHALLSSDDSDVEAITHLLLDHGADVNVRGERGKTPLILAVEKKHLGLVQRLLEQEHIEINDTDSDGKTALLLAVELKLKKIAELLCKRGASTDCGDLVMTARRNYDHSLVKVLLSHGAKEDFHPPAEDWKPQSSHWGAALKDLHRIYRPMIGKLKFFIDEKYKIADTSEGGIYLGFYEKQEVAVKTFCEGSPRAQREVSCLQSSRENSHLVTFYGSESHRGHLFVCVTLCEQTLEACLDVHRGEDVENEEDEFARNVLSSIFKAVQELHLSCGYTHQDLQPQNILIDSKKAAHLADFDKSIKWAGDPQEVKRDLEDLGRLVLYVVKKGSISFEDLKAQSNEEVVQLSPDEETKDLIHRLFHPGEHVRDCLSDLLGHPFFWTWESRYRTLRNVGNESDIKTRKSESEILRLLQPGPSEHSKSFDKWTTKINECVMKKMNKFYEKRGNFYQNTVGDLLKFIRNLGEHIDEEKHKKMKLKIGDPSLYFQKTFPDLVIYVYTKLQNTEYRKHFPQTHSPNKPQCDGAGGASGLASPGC
UniProt Q9BV68: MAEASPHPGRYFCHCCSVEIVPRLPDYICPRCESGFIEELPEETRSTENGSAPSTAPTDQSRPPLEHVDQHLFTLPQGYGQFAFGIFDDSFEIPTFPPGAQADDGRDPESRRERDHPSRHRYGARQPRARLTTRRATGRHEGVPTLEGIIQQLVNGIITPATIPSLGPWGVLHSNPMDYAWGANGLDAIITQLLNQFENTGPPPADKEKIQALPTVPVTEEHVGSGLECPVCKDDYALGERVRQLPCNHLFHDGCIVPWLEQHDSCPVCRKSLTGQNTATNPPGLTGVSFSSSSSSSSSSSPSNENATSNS
UniProt Q9NQG5: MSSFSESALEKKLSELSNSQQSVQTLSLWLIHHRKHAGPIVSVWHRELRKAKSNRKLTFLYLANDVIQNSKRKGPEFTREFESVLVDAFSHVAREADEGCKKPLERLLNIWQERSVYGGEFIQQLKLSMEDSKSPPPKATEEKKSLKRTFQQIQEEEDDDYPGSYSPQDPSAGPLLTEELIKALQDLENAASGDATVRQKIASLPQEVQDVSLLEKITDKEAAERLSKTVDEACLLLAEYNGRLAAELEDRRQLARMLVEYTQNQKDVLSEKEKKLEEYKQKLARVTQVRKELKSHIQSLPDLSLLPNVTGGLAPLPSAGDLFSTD
UniProt Q8N5U6: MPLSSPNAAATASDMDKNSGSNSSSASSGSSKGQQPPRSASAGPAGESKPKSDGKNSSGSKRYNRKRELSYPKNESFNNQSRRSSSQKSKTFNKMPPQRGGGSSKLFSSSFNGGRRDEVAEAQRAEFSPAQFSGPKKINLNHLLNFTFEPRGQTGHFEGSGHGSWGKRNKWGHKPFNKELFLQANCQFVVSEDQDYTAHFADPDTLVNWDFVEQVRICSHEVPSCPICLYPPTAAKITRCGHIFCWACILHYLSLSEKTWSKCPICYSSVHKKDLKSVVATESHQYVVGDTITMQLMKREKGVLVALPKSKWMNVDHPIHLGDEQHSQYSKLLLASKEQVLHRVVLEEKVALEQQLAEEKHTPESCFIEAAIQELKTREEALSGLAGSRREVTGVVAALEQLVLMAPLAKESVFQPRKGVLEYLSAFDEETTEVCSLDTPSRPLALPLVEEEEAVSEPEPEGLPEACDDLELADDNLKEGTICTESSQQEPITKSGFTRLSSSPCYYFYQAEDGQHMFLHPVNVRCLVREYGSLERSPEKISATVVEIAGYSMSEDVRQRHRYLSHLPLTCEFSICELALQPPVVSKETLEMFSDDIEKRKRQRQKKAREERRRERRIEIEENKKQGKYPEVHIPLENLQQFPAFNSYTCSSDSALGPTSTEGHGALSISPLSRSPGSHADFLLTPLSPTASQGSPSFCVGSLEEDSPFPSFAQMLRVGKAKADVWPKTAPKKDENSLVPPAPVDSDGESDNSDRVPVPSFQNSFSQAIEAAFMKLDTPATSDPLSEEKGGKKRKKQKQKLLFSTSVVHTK
UniProt Q96A37: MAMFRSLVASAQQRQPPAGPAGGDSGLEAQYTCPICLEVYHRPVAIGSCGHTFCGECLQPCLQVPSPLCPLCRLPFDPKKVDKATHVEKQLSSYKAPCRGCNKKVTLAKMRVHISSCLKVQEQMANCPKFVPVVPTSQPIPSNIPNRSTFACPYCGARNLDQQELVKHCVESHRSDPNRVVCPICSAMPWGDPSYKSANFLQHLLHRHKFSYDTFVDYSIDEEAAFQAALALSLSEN
UniProt Q9UBS8: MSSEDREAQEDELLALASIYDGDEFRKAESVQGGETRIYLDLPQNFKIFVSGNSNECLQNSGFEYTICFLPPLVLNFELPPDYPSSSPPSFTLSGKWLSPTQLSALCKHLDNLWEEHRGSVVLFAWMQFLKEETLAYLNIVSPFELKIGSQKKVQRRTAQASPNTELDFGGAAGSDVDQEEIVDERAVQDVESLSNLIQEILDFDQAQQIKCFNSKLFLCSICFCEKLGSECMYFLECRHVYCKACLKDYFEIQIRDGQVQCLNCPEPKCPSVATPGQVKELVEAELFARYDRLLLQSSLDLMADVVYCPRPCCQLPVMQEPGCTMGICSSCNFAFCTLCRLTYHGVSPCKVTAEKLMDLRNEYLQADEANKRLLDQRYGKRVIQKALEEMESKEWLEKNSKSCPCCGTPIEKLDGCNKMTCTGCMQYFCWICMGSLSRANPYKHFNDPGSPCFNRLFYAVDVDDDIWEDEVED

What follows are targets tested with ClCC(=O)N[C@H]1CCCc2ccccc12 (assay: log2 mean competition ratio of IA-DTB cysteine labelling (DMSO/compound) (log2 ratio); higher = stronger cysteine engagement by compound). Details: 50 µM; treatment time: 4 h; cell line lysate: HEK293T.
Protocol: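 IA-DTB competitive cysteine chemoproteomics in HEK293T RIPA lysate. Lysates were treated with compound 29 or 30 at 50 or 200 µM for 4 h, then IA-DTB (500 µM, 1 h), trypsin-digested, NeutrAvidin-enriched and analysed by diaPASEF. Competition ratio = intensity DMSO / intensity compound (n=4 treated, n=64 DMSO); binding: mean log2 CR ≥ 1 and p ≤ 0.05 plus QC filters. Target is the cysteine site.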

| Target | log2 mean competition ratio |
| --- | --- |
| RPL36A;RPL36AL C88;(C88) | 0.162 |
| RPL4 C208 (UniProt P36578) | 0.447 |
| RRBP1 C933 (UniProt Q9P2E9) | 0.00903 |
| RXRB C265 (UniProt P28702) | -0.279 |
| RPS6 C12 (UniProt P62753) | 0.399 |
| RPTOR C505 (UniProt Q8N122) | -0.371 |
| RNASEL C395 (UniProt Q05823) | 0.385 |
| RRP1B C386 (UniProt Q14684) | 0.738 |
| RPSA C163 | 0.36 |
| RNF213 C1064 | -0.162 |
| RNF126 C32 (UniProt Q9BV68) | 0.137 |
| RPS2 C229 (UniProt P15880) | 0.501 |
| RNF213 C1325 | -0.152 |
| RNF123 C977 (UniProt Q5XPI4) | -0.348 |
| RPS11 C60 (UniProt P62280) | 0.345 |
| RPRD1B C100 (UniProt Q9NQG5) | 0.0221 |
| RNF10 C483 (UniProt Q8N5U6) | -0.235 |
| RNF166 C127 (UniProt Q96A37) | -0.367 |
| RNF14 C453 (UniProt Q9UBS8) | -0.296 |
| RPL12 C162 (UniProt P30050) | -0.0731 |

Same assay, conditions: 200 µM; treatment time: 4 h; cell line lysate: HEK293T

| Target | log2 mean competition ratio |
| --- | --- |
| RPL36A;RPL36AL C88;(C88) | -0.0501 |
| RPL4 C208 (UniProt P36578) | 0.0455 |
| RRBP1 C933 (UniProt Q9P2E9) | -0.252 |
| RXRB C265 (UniProt P28702) | -0.0306 |
| RPS6 C12 (UniProt P62753) | 0.0526 |
| RPTOR C505 (UniProt Q8N122) | -0.113 |
| RNASEL C395 (UniProt Q05823) | -0.0481 |
| RRP1B C386 (UniProt Q14684) | -0.367 |
| RPSA C163 | -0.469 |
| RNF213 C1064 | 0.00748 |
| RNF126 C32 (UniProt Q9BV68) | -0.00288 |
| RPS2 C229 (UniProt P15880) | -0.0715 |
| RNF213 C1325 | -0.183 |
| RNF123 C977 (UniProt Q5XPI4) | 0.0917 |
| RPS11 C60 (UniProt P62280) | 0.384 |
| RPRD1B C100 (UniProt Q9NQG5) | 0.413 |
| RNF10 C483 (UniProt Q8N5U6) | -0.24 |
| RNF166 C127 (UniProt Q96A37) | -0.0274 |
| RNF14 C453 (UniProt Q9UBS8) | -0.0421 |
| RPL12 C162 (UniProt P30050) | -0.0308 |
